# Patent US20250283871A1, “COMPOSITIONS AND METHODS FOR MODULATING THE INTERACTION BETWEEN SS18-SSX FUSION ONCOPROTEIN AND NUCLEOSOMES” (Dana-Farber Cancer Institute, Inc., priority 2020, published 2025)
# B1: NOL9 (protein, UniProt Q5SY16 2-702, looked up)
# Polynucleotide …: ADSGLLLKRGSCRSTWLRVRKARPQLILSRRPRRRLGSLRWCGRRRLRWRLLQAQASGVDWREGARQVSRAAAARRPNTATPSPIPSPTPASEPESEPELESASSCHRPLLIPPVRPVGPGRALLLLPVEQGFTFSGICRVTCLYGQVQVFGFTISQGQPAQDIFSVYTHSCLSIHALHYSQPEKSKKELKREARNLLKSHLNLDDRRWSMQNFSPQCSIVLLEHLKTATVNFITSYPGSSYIFVQESPTPQIKPEYLALRSVGIRREKKRKGLQLTESTLSALEELVNVSCEEVDGCPVILVCGSQDVGKSTFNRYLINHLLNSLPCVDYLECDLGQTEFTPPGCISLLNITEPVLGPPFTHLRTPQKMVYYGKPSCKNNYENYIDIVKYVFSAYKRESPLIVNTMGWVSDQGLLLLIDLIRLLSPSHVVQFRSDHSKYMPDLTPQYVDDMDGLYTKSKTKMRNRRFRLAAFADALEFADEEKESPVEFTGHKLIGVYTDFAFRITPRNRESHNKILRDLSILSYLSQLQPPMPKPLSPLHSLTPYQVPFNAVALRITHSDVAPTHILYAVNASWVGLCKIQDDVRGYTNGPILLAQTPICDCLGFGICRGIDMEKRLYHILTPVPPEELRTVNCLLVGAIAIPHCVLKCQRGIEGTVPYVTTDYNFKLPGASEKIGAREPEEAHKEKPYRRPKFCRKMK
# B2: NEFM (protein, UniProt P07197 2-916, looked up)
# Neurofilament medium …: SYTLDSLGNPSAYRRVTETRSSFSRVSGSPSSGFRSQSWSRGSPSTVSSSYKRSMLAPRLAYSSAMLSSAESSLDFSQSSSLLNGGSGPGGDYKLSRSNEKEQLQGLNDRFAGYIEKVHYLEQQNKEIEAEIQALRQKQASHAQLGDAYDQEIRELRATLEMVNHEKAQVQLDSDHLEEDIHRLKERFEEEARLRDDTEAAIRALRKDIEEASLVKVELDKKVQSLQDEVAFLRSNHEEEVADLLAQIQASHITVERKDYLKTDISTALKEIRSQLESHSDQNMHQAEEWFKCRYAKLTEAAEQNKEAIRSAKEEIAEYRRQLQSKSIELESVRGTKESLERQLSDIEERHNHDLSSYQDTIQQLENELRGTKWEMARHLREYQDLLNVKMALDIEIAAYRKLLEGEETRFSTFAGSITGPLYTHRPPITISSKIQKPKVEAPKLKVQHKFVEEIIEETKVEDEKSEMEEALTAITEELAVSMKEEKKEAAEEKEEEPEAEEEEVAAKKSPVKATAPEVKEEEGEKEEEEGQEEEEEEDEGAKSDQAEEGGSEKEGSSEKEEGEQEEGETEAEAEGEEAEAKEEKKVEEKSEEVATKEELVADAKVEKPEKAKSPVPKSPVEEKGKSPVPKSPVEEKGKSPVPKSPVEEKGKSPVPKSPVEEKGKSPVSKSPVEEKAKSPVPKSPVEEAKSKAEVGKGEQKEEEEKEVKEAPKEEKVEKKEEKPKDVPEKKKAESPVKEEAVAEVVTITKSVKVHLEKETKEEGKPLQQEKEKEKAGGEGGSEEEGSDKGAKGSRKEDIAVNGEVEGKEEVEQETKEKGSGREEEKGVVTNGLDLSPADEKKGGDKSEEKVVVTKTVEKITSEGGDGATKYITKSVTVTQKVEEHEETFEEKLVSTKKVEKVTSHAIVKEVTQSD
# B3: HNRNPH3 (protein, UniProt P31942 1-346, looked up)
# Heterogeneous nuclear …: MDWVMKHNGPNDASDGTVRLRGLPFGCSKEEIVQFFQGLEIVPNGITLTMDYQGRSTGEAFVQFASKEIAENALGKHKERIGHRYIEIFRSSRSEIKGFYDPPRRLLGQRPGPYDRPIGGRGGYYGAGRGSMYDRMRRGGDGYDGGYGGFDDYGGYNNYGYGNDGFDDRMRDGRGMGGHGYGGAGDASSGFHGGHFVHMRGLPFRATENDIANFFSPLNPIRVHIDIGADGRATGEADVEFVTHEDAVAAMSKDKNNMQHRYIELFLNSTPGGGSGMGGSGMGGYGRDGMDNQGGYGSVGRMGMGNNYSGGYGTPDGLGGYGRGGGGSGGYYGQGGMSGGGWRGMY
# System: BAF complex subunits and histone proteins
# Assay: Mass spectrometry proteomics of purified HA-SS18 WT and HA-SS18-SSX1 complexes (Tables 5A-5E)
# Parameters: species or system human
# Details: for Total / Unique: HA-SS18SSX1_CHR_peptides; for Total: total peptides of the identified protein; for Unique: unique peptides of the identified protein
# [1] = HA-SS18SSX1_NE_peptides: protein co-purified with HA-SS18-SSX1 BAF complexes from soluble nuclear extract (NE), HEK-293T cells
# [2] = HA-SS18WT_NE_peptides: HA-SS18 WT complexes purified from nuclear extract (NE), HEK-293T, label = protein identified (Gene Symbol)
# [3] = HA-SS18WT_CHR_peptides: HA-SS18 WT purification from nuclease-treated solubilized chromatin (CHR), HEK-293T, label = protein identified
Molecule,Total,Unique,Total (peptides) [1],Unique (peptides) [1],Total (peptides) [2],Unique (peptides) [2],Total (peptides) [3],Unique (peptides) [3]
B1,2,2,1,1,3,3,–,–
B2,2,2,–,–,–,–,–,–
B3,2,2,–,–,–,–,3,3
